For this assay, the target named is flag-tagged N-terminal FMNL2 (aa 23-484) with an alanine mutation at position L136 (human) (UniProt Q96PY5). Nature of the assay: co-IP; HEK-293T cells co-transfected; lysis in Tris 20 mM, NaCl 150 mM, EDTA 2 mM, Triton-X-100 0,1% with protease inhibitors; flag-NT precipitated on Flag-M2 agarose beads, 1 hour at 4°C, three washes; immunoblot of the co-expressed partner (myc-CT or GFP-Cdc42).

Sequences of proteins named here, by UniProt entry; tags and fusion partners are left off. A change or cut given only in a name is not applied to a line headed by its entry. A line that says so, or that is headed by a name, gives the form on record, which may keep a tag or linker.
myc-tagged FMNL2 C-terminal fragment (aa 521-1092) (Q96PY5-3, form named): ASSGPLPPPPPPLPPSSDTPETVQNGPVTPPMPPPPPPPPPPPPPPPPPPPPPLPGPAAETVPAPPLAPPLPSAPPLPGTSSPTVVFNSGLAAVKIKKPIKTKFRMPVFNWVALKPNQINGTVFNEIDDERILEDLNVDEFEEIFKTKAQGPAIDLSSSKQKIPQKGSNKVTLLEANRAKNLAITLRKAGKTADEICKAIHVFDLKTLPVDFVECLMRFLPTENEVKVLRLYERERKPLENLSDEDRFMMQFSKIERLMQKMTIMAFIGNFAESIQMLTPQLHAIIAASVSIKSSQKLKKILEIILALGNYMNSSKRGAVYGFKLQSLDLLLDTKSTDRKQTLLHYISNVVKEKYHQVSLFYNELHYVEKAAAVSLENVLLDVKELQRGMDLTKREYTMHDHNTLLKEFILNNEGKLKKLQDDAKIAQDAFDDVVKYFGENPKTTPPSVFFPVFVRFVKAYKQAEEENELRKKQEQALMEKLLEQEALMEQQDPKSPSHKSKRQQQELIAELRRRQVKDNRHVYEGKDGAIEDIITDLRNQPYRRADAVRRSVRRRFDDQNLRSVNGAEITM

No constants are given. Whether binding was seen depends on the method and setting. Binding seen in cells or lysates may run through a third protein. Binding can be weak; no strength is given.

As to “myc-tagged FMNL2 C-terminal fragment (aa 521-1092) (from UniProt Q96PY5-3 521-1092) (domain or fragment)”, the binding entry is reported as “binds”.

For the origin of these results see paper PMC8158924.
